Molecular target: ADAMTS5 (UniProt Q9UNA0)
Test: inhibition of the protein
Conditions: 2'-F pyrimidines; 30 nM; purified recombinant protein; protein details: R&D Systems; variant of SEQ ID NO: 4; counted as no effect

Sequences of proteins named here, by UniProt entry; tags and fusion partners are left off. Residues count along the entry.
UniProt Q9UNA0, 262-622: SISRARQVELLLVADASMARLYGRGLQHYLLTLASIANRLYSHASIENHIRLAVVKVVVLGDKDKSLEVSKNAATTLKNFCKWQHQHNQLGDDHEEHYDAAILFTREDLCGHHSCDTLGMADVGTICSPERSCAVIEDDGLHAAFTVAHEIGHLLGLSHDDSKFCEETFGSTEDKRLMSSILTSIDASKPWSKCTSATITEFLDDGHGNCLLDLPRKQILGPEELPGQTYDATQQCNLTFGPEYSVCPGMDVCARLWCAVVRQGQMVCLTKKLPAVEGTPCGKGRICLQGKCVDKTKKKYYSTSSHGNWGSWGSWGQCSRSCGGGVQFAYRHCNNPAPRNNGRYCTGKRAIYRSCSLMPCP

| Sequence | functional effect of the aptamer |
| --- | --- |
| GGCUUGGGGCCUCCACAGCUGCUCAGCUUGGACUAACCAAGCC [SEQ ID NO: 7] | -2.3 % inhibition |
| GGCUUGGGGCCUCACAGCUGCUCAGCUUGACUAAACCAAGCC [SEQ ID NO: 8] | -8.6 % inhibition |
